# According to PubChem BioAssay AID588590 (National Center for Advancing Translational Sciences (NCATS), 2011):
# Amino acid sequences for entries named in this document (tags omitted). A change or cut given only in a name is not applied to a line headed by its entry.
# UniProt Q9UNA4: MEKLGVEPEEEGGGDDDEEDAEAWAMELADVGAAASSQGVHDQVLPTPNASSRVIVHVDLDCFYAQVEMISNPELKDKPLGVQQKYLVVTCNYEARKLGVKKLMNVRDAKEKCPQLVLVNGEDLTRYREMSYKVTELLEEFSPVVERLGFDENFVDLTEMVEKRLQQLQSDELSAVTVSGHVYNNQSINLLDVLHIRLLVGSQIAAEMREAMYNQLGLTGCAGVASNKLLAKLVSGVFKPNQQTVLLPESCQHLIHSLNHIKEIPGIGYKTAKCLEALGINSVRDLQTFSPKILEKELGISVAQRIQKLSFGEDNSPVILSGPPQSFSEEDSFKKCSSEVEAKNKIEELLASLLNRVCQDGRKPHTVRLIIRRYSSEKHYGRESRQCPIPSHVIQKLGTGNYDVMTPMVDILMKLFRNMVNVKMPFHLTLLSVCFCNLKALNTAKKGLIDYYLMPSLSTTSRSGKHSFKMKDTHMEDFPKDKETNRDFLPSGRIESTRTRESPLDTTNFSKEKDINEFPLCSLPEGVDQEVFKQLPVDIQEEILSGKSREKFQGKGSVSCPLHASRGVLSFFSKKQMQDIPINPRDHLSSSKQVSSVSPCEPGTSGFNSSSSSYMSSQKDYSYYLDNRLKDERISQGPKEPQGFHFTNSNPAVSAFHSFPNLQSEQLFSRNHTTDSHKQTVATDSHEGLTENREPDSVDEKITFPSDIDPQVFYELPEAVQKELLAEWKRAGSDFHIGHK
# About 4,000 (1%) of roughly 390,000 compounds were called active. Inconclusive means that the source gave no clear call. Such entries were picked first, then a sample of the others. Calls come from the whole dose curve; as a rule, active = well fitted inhibition curve with a large enough effect; inconclusive = small, poorly fitted or top-dose-only effect, or another doubt; inactive = no such curve, though single readings can be large or run the other way. A potency beside an inconclusive call is a rough fit, not a confirmed value.
# Target: DNA polymerase iota (Homo sapiens) (UniProt Q9UNA4)
# Experiment: qHTS for Inhibitors of Polymerase Iota
# Conditions: Pol iota fluorescent replication assay, 10 min; series mostly up to 115 µM
# Method in brief: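 Fluorescent replication assay read twice, at 0 min and 10 min after adding 50 nM (final) substrate. Enzyme (10 nM) and compounds were first incubated 15 min at room temperature; enzyme-free buffer wells were negative controls.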
# Potency is the fitted concentration of half-maximal effect.
row,SMILES,Potency
1,CC(C)c1ccc(NC(=O)C[n+]2ccn(C3=C([O-])c4ccccc4C3=O)c2)cc1,"inconclusive: 44.7 µM [inhibitor, partial curve]"
2,O=C(c1cccc(N2C(=O)C3C4C=CC(C4)C3C2=O)c1)N1CCCCCC1 (stereo unspecified),inactive
3,CC1(C)CC(=O)C=C(NCCN2CCN(C(=S)NC3CCCCC3)CC2)C1,inactive
4,C#CCN1C(C)=C(C(=O)OC)C(c2cccc([N+](=O)[O-])c2)C(C(=O)OCC)=C1C (stereo unspecified),"inconclusive: 3.55 µM [inhibitor, full curve, poor fit]"
5,COC(=O)NCC(c1cccnc1)N1CCN(c2ccccc2)CC1 (stereo unspecified),"inconclusive: 7.94 µM [inhibitor, full curve, poor fit]"
6,Cc1ccc(-c2onc3ccc(C=O)cc23)cc1,"inconclusive: 5.01 µM [inhibitor, full curve, poor fit]"
7,OCC[C@@H]1C[C@H](O)[C@@H](O)[C@]2(OCc3ccccc32)O1,"inconclusive: 89.1 µM [inhibitor, single point]"
8,CC(=O)c1ccc(S(=O)(=O)N2CCNC(=O)C2)cc1,"inconclusive: 15.8 µM [inhibitor, full curve, poor fit]"
9,O=C1C(=C2CCc3ccccc32)Cc2ccccc21,"inconclusive: 39.8 µM [inhibitor, single point]"
10,COc1cnc(SC)nc1Nc1ccc(C#N)cc1,"inconclusive: 15.8 µM [inhibitor, full curve]"
11,COc1ccc(OC)c(CNC(=O)Cn2nc(C)c3nn(-c4ccc(Cl)cc4)c(C)c3c2=O)c1,inactive
12,CC1CCCc2sc3nc(NCc4ccco4)n4ncnc4c3c21 (stereo unspecified),"inconclusive: 11.2 µM [inhibitor, full curve, poor fit]"
13,CN(C)c1ccc(N=Cc2ccco2)cc1,"inconclusive: 17.8 µM [inhibitor, partial curve, poor fit]"
14,Cc1ccc(C(=O)OCC(=O)NCc2ccco2)s1,active: 28.2 µM
15,CCN(CC)c1ccc(C(=O)NNC(=O)c2ccc3c(=O)n4c(nc3c2)CCC4)cc1,"inconclusive: 56.2 µM [inhibitor, partial curve, poor fit]"
16,COc1ccc(NC(=O)c2cc(S(=O)(=O)N3CCCCCC3)cn2C)cc1Cl,inactive
17,CCc1c(C)[nH]n(-c2ccc(Oc3ccccc3)c(S(=O)(=O)O)c2)c1=O,active: 17.8 µM
18,Cc1c(OCC(=O)NCC2CCC(C(=O)NCCCO)CC2)ccc2c(-c3ccccc3)cc(=O)oc12 (stereo unspecified),"inconclusive: 70.8 µM [inhibitor, single point]"
19,Oc1ccc2ccccc2c1CNc1ccccc1,"inconclusive: 15.8 µM [inhibitor, partial curve, poor fit]"
20,O=C(COC(=O)c1ccc(S(=O)(=O)N2CCCCC2)cc1)NCc1ccco1,"inconclusive: 14.1 µM [inhibitor, full curve]"
21,O=C(CNC(=O)c1ccc(Cl)cc1)N/N=C/C=C/c1ccccc1,"inconclusive: 56.2 µM [inhibitor, partial curve, poor fit]"

row,SMILES,Potency
1,O=C(OCc1nnc(-c2ccccc2Br)o1)c1ccco1,"inconclusive: 39.8 µM [inhibitor, single point]"
2,O=C(Nc1ccc(Cl)cc1C(=O)NCc1cccnc1)c1ccco1,"inconclusive: 112 µM [inhibitor, partial curve, poor fit]"
3,COc1cc2[nH]c(=O)n(Cc3ccc(C(=O)N4CCN(c5cc(Cl)ccc5C)CC4)cc3)c(=O)c2cc1OC,"inconclusive: 70.8 µM [inhibitor, partial curve, poor fit]"
4,CCN(CC(=O)Nc1ccc(OC)cc1)C(=O)CSCC(=O)Nc1cc(C)on1,"inconclusive: 79.4 µM [inhibitor, partial curve, poor fit]"
5,O=C(CCC1N=C2c3ccccc3N=C(SCc3ccccc3F)N2C1=O)NCCc1ccccc1 (stereo unspecified),"inconclusive: 3.98 µM [inhibitor, partial curve, poor fit]"
6,Cc1cc(C)c(NC(=O)Cn2ccn(-c3cccc(Cl)c3)c(=O)c2=O)c(C)c1,"inconclusive: 56.2 µM [inhibitor, single point]"
7,O=C1/C(=C\c2ccccc2)CN(C(=O)CCN2CCCCC2)C/C1=C/c1ccccc1,"inconclusive: 14.1 µM [inhibitor, full curve]"
8,C=CCn1cc(CN2CCC(C(=O)Nc3ccc(Oc4cccnc4)cc3)CC2)c(C)n1,"inconclusive: 89.1 µM [inhibitor, single point]"
9,CCOC(=O)CSc1nc(C)cc(Oc2ccc(=O)n(C)n2)n1,"inconclusive: 89.1 µM [inhibitor, partial curve, poor fit]"
10,OCC1OC(n2cnc3c(/C=C(\O)c4ccccc4)ncnc32)C(O)C1O (stereo unspecified),"inconclusive: 100 µM [inhibitor, single point]"
11,O=C1Nc2cc3c(cc2C1=O)sc1ccccc13,active: 31.6 µM
12,Cc1nc(-c2ccc(S(=O)(=O)N3CCN(c4cccc(C)c4C)CC3)cc2)co1,inactive
13,Cc1ccc(OCC(=O)c2cc(C)c(C)cc2C)c([N+](=O)[O-])n1,"inconclusive: 11.2 µM [inhibitor, partial curve, poor fit]"
14,O=C(Nc1ccc(F)cc1F)C1CCN(S(=O)(=O)c2ccc3[nH]c(=O)ccc3c2)CC1,inactive
15,CC1C(=O)Nc2ccc(S(=O)(=O)N3CCN(c4cccc(Cl)c4)CC3)cc2NC1=O (stereo unspecified),inactive
16,CCCCCCCN1C(Nc2ccccc2)=NC[C@@H]1C,"inconclusive: 12.6 µM [inhibitor, partial curve, poor fit]"
17,O=c1oc2cc(O)ccc2c2oc3cc(O)ccc3c12,"inconclusive: 56.2 µM [inhibitor, partial curve, poor fit]"
18,COc1cc(NC(=O)CCc2nc3cccnc3n2Cc2cccs2)cc(OC)c1OC,inactive
19,CC(=O)CCC(=O)N1CCC(n2nccc2NC(=O)c2ccccc2C)CC1,"inconclusive: 89.1 µM [inhibitor, partial curve, poor fit]"
20,CC(=O)Cc1nsc(NC(=O)C2Cc3ccccc3C(=O)O2)n1 (stereo unspecified),"inconclusive: 79.4 µM [inhibitor, single point]"

# Sorted by count of non-hydrogen atoms (largest number first): some entries from above
row,SMILES,Potency
3,COc1cc2[nH]c(=O)n(Cc3ccc(C(=O)N4CCN(c5cc(Cl)ccc5C)CC4)cc3)c(=O)c2cc1OC,"inconclusive: 70.8 µM [inhibitor, partial curve, poor fit]"
18,Cc1c(OCC(=O)NCC2CCC(C(=O)NCCCO)CC2)ccc2c(-c3ccccc3)cc(=O)oc12 (stereo unspecified),"inconclusive: 70.8 µM [inhibitor, single point]"
11,COc1ccc(OC)c(CNC(=O)Cn2nc(C)c3nn(-c4ccc(Cl)cc4)c(C)c3c2=O)c1,inactive
1,CC(C)c1ccc(NC(=O)C[n+]2ccn(C3=C([O-])c4ccccc4C3=O)c2)cc1,"inconclusive: 44.7 µM [inhibitor, partial curve]"
20,O=C(COC(=O)c1ccc(S(=O)(=O)N2CCCCC2)cc1)NCc1ccco1,"inconclusive: 14.1 µM [inhibitor, full curve]"
2,O=C(c1cccc(N2C(=O)C3C4C=CC(C4)C3C2=O)c1)N1CCCCCC1 (stereo unspecified),inactive
17,CCc1c(C)[nH]n(-c2ccc(Oc3ccccc3)c(S(=O)(=O)O)c2)c1=O,active: 17.8 µM
2,O=C(Nc1ccc(Cl)cc1C(=O)NCc1cccnc1)c1ccco1,"inconclusive: 112 µM [inhibitor, partial curve, poor fit]"
21,O=C(CNC(=O)c1ccc(Cl)cc1)N/N=C/C=C/c1ccccc1,"inconclusive: 56.2 µM [inhibitor, partial curve, poor fit]"
1,O=C(OCc1nnc(-c2ccccc2Br)o1)c1ccco1,"inconclusive: 39.8 µM [inhibitor, single point]"
19,Oc1ccc2ccccc2c1CNc1ccccc1,"inconclusive: 15.8 µM [inhibitor, partial curve, poor fit]"
6,Cc1ccc(-c2onc3ccc(C=O)cc23)cc1,"inconclusive: 5.01 µM [inhibitor, full curve, poor fit]"
